From patent US20030186355A1, “Methods for selecting and producing t cell peptide epitopes and vaccines incorporating said selected epitopes” (priority 2000, published 2003) come the findings set out here.

Series [1] concerns 20S proteasomes. In words: In vitro proteasome mediated digestions of 27-mer PRAME polypeptides. The format is biochemical, human. The settings on record: incubation 1 h, 4 h, 24 h at 37° C.
Series [2] has as its system 20S proteasomes. Description: Proteasome digestion assay of 26-mer synthetic peptide substrates, fragments analysed by electrospray mass spectrometry. The format is biochemical, mouse. The settings on record: for amount of peptide fragment, relative percentage of the total intensity of the peptide fragments in the spectrum: fragments of Sendai or MCF 26-mer substrate; for Intensity as a percentage of the total amount of intensity of the peak fragments: fragments of substrates 5A Moloney, 5B AKV, 5C Friend MuLV.

`CC(C)C[C@H](NC(=O)CN)C(=O)N[C@@H](CC(=O)O)C(=O)N[C@H](C(=O)N[C@@H](CC(C)C)C(=O)N[C@@H](CC(C)C)C(=O)N[C@@H](C)C(=O)N[C@@H](CCC(N)=O)C(=O)N[C@@H](CCC(=O)O)C(=O)N[C@H](C(=O)O)C(C)C)C(C)C`: in the series with 20S proteasomes [1], the “generation/excision of the peptide by the proteasome from 27-mer PRAME polypeptide” value (“generation/excision of the peptide” for short) is recorded as “not found”.
In the case of `CSCC[C@H](N)C(=O)N[C@@H](CC(C)C)C(=O)N[C@H](C(=O)N[C@@H](CC(=O)O)C(=O)N[C@H](C(=O)N[C@@H](CO)C(=O)N1CCC[C@H]1C(=O)N[C@@H](CCC(=O)O)C(=O)N1CCC[C@H]1C(=O)N[C@@H](CC(C)C)C(=O)O)C(C)C)[C@@H](C)O`, the “generation/excision of the peptide” value with 20S proteasomes [1] is listed as “not generated”.
Same read-out and setting: the entry for `CC(C)C[C@H](NC(=O)[C@H](C)NC(=O)[C@H](CCC(N)=O)NC(=O)[C@H](CC(C)C)NC(=O)[C@H](CS)NC(=O)[C@H](CCC(N)=O)NC(=O)[C@H](CC(C)C)NC(=O)[C@H](CO)NC(=O)[C@H](CC(C)C)NC(=O)[C@@H](N)Cc1ccccc1)C(=O)O` [FLSLQCLQAL] is “not C-terminally generated”; for `CC(C)C[C@H](NC(=O)[C@@H](N)CO)C(=O)N[C@@H](Cc1ccc(O)cc1)C(=O)N[C@@H](CO)C(=O)N[C@@H](Cc1ccccc1)C(=O)N1CCC[C@H]1C(=O)N[C@@H](CCC(=O)O)C(=O)N1CCC[C@H]1C(=O)N[C@@H](CCC(=O)O)C(=O)N[C@@H](C)C(=O)O` it is “already found after 1 h digestion in significant quantities”.
Regarding `CC(C)C[C@H](NC(=O)[C@@H](NC(=O)[C@H](CC(=O)O)NC(=O)[C@H](CC(C)C)NC(=O)CNC(=O)[C@H](CC(=O)O)NC(=O)[C@H](CC(C)C)NC(=O)[C@@H](NC(=O)[C@H](C)N)C(C)C)C(C)C)C(=O)O`, the “generation/excision of the peptide” value in the series with 20S proteasomes [1] is given as “not found”.
The same measure, in the same setting: with `CC[C@H](C)[C@H](NC(=O)[C@@H](N)CO)C(=O)N[C@@H](CO)C(=O)N[C@@H](C)C(=O)N[C@@H](CC(C)C)C(=O)N[C@@H](CCC(N)=O)C(=O)N[C@@H](CO)C(=O)N[C@@H](CC(C)C)C(=O)N[C@@H](CC(C)C)C(=O)O` the entry was “not generated”; with “QSLLQHLIGL [PRAME aa; 424-433 digestion fragment]”, “generated abundantly after 1 h digestion”.
As to “FNKSPWFTTL [proteasome fragment of MCF substrate, 10-mer]”, the “amount of peptide fragment, relative percentage of the total intensity of the peptide fragments in the spectrum” value in the series with 20S proteasomes [2] (digestion time 4 h) worked out at 6%; in the series with 20S proteasomes [2] (digestion time 24 h), 22%.
For the compound “SWDFITV [proteasome fragment of substrate 5A]”, the “Intensity as a percentage of the total amount of intensity of the peak fragments” value (shortened to “Intensity as a percentage”) in the series with 20S proteasomes [2] (digestion time 1 h) was determined as 45%; in the series with 20S proteasomes [2] (digestion time 4 h), 64%; with 20S proteasomes [2] (digestion time 24 h) it was 72%.
Take “RQEYAIPVGPVFPPGMNWTELITNYS [26-mer substrate, Rotavirus VP-6, reference compound]”: the “correct C-terminus” value in the series on 20S proteasomes [2] was “yes”.
Turning to “PSSSWDYITVDNNLTTNQA [proteasome fragment of substrate 5C]”, the “Intensity as a percentage” value in the series with 20S proteasomes [2] (digestion time 1 h) was found to be 5%.
Turning to “AYWKPSSSWDFITV [proteasome fragment of substrate 5A]”, the “Intensity as a percentage” value in the series on 20S proteasomes [2] (digestion time 1 h) was determined as 14%.
For the compound “SWVTLSTDDPVIDRLYLSSHRGVIAD [26-mer substrate, Measles HA, reference compound]”, the “correct C-terminus” value with 20S proteasomes [2] is recorded as “yes”.
